One experiment deals with Halo-TMEM55B R151E (UniProt Q86T03). As to the kind of experiment: affinity purification with mass spectrometry; Halo-TMEM55B WT or R151E on HaloLink resin from transfected cells with Rab8A Q67L and LRRK2 Y1699C (or Y1699C D2017A); DIA-MS.
A further experiment addresses Halo-TMEM55B (UniProt Q86T03). The description is as above.

Protein sequences, listed by entry. Tags and fused reporters are not part of them. Lines headed by an entry give the natural chain unless they say otherwise; changes in a name come on top. Chains listed by the source or under a name are the forms on record and can include a tag or linker.
Halo-TMEM55B R151E (Q86T03, form named): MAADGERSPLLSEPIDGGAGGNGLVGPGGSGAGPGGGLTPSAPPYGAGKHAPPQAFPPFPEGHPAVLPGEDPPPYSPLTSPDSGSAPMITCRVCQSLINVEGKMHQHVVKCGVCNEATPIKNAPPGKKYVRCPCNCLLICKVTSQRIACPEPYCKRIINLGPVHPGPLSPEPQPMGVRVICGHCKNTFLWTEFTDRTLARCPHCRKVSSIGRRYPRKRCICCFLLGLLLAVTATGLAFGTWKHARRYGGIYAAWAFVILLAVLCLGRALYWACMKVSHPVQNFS
Halo-TMEM55B (Q86T03, form named): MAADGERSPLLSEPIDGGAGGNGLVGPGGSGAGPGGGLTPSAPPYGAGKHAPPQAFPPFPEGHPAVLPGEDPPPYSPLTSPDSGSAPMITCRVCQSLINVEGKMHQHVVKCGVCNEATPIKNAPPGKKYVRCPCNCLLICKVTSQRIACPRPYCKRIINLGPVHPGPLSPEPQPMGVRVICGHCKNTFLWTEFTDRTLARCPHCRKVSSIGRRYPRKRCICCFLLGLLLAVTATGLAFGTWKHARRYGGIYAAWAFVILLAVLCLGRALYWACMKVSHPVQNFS

No constants are given. Whether binding was seen depends on the method and setting. In cells and extracts the contact can be indirect. Here binding means that the protein was enriched with, or labelled near, the bait; the list need not be complete. For some of these results: A no says only that the protein was not detected with the bait.

B1: SMAC (protein, UniProt Q9NR28 22-239)
chain: LCVPVVANFKKRCFSELIRPWHKTVTIGFGVTLCAVPIAQKSEPHSLSSEALMRRAVSLVTDSTSTFLSQTTYALIEAITEYTKAVYTLTSLYRQYTSLLGKMNSEEEDEVWQVIIGARAEMTSKHQEYLKLETTWMTAVGLSEMAAEAAYQTGADQASITARNHIQLVKLQVEEVHQLSRKAETKLAEAQIEELRQKTQEEGEERAESEQEAYLRED
Consider B1, for which the results for the binding result with Halo-TMEM55B R151E and with Halo-TMEM55B were “no binding” and “binds”, respectively.

B2: PDZD8 (protein, UniProt Q8NEN9 1-1154)
chain: MGLLLMILASAVLGSFLTLLAQFFLLYRRQPEPPADEAARAGEGFRYIKPVPGLLLREYLYGGGRDEEPSGAAPEGGATPTAAPETPAPPTRETCYFLNATILFLFRELRDTALTRRWVTKKIKVEFEELLQTKTAGRLLEGLSLRDVFLGETVPFIKTIRLVRPVVPSATGEPDGPEGEALPAACPEELAFEAEVEYNGGFHLAIDVDLVFGKSAYLFVKLSRVVGRLRLVFTRVPFTHWFFSFVEDPLIDFEVRSQFEGRPMPQLTSIIVNQLKKIIKRKHTLPNYKIRFKPFFPYQTLQGFEEDEEHIHIQQWALTEGRLKVTLLECSRLLIFGSYDREANVHCTLELSSSVWEEKQRSSIKTVELIKGNLQSVGLTLRLVQSTDGYAGHVIIETVAPNSPAAIADLQRGDRLIAIGGVKITSTLQVLKLIKQAGDRVLVYYERPVGQSNQGAVLQDNFGQLEENFLSSSCQSGYEEEAAGLTVDTESRELDSEFEDLASDVRAQNEFKDEAQSLSHSPKRVPTTLSIKPLGAISPVLNRKLAVGSHPLPPKIQSKDGNKPPPLKTSEITDPAQVSKPTQGSAFKPPVPPRPQAKVPLPSADAPNQAEPDVLVEKPEKVVPPPLVDKSAEKQAKNVDAIDDAAAPKQFLAKQEVAKDVTSETSCPTKDSSDDRQTWESSEILYRNKLGKWTRTRASCLFDIEACHRYLNIALWCRDPFKLGGLICLGHVSLKLEDVALGCLATSNTEYLSKLRLEAPSPKAIVTRTALRNLSMQKGFNDKFCYGDITIHFKYLKEGESDHHVVTNVEKEKEPHLVEEVSVLPKEEQFVGQMGLTENKHSFQDTQFQNPTWCDYCKKKVWTKAASQCMFCAYVCHKKCQEKCLAETSVCGATDRRIDRTLKNLRLEGQETLLGLPPRVDAEASKSVNKTTGLTRHIINTSSRLLNLRQVSKTRLSEPGTDLVEPSPKHTPNTSDNEGSDTEVCGPNSPSKRGNSTGIKLVRKEGGLDDSVFIAVKEIGRDLYRGLPTEERIQKLEFMLDKLQNEIDQELEHNNSLVREEKETTDTRKKSLLSAALAKSGERLQALTLLMIHYRAGIEDIETLESLSLDQHSKKISKYTDDTEEDLDNEISQLIDSQPFSSISDDLFGPSESV
B2: the binding result is “no binding” in the experiment with Halo-TMEM55B R151E and “binds” with Halo-TMEM55B.
